# From article PMC7377239, “Cardiovascular Effects of Polychlorinated Biphenyls and Their Major Metabolites” (Environmental Health Perspectives, 2020)
# System: iPSC-CMs, iPSC-ECs and HUVECs phenotypes
# Assay: ToxPi 2.0 integration of POD values and physicochemical descriptors
# Parameters: species or system human
# Conditions: 90min
# Description: Phenotypic responses were quantitatively assessed using concentration–response modeling as detailed elsewhere ([Sirenko et al. 2017]). Briefly, phenotypic readouts were normalized to vehicle controls and fit to a four-parameter logistic model in R studio software (version 3.1.1; R Development Core Team). Following EPA guidance on dose–response modeling, a cutoff of one standard deviation across means of vehicle control (i.e., 0.5% vol/vol DMSO in cell culture media) wells was applied to determine the point-of-departure (POD) values ([U.S. EPA 2012]). In the absence of a concentration–response, the highest tested concentration (i.e., 100μM ) was assigned as “no observable adverse effect level.” The concentration–response assessment R script, as well as templates for vehicle and concentration–response data, are available as a supplement to Sirenko et al. ([2017]). The ability of physicochemical properties to predict differences in PODs were evaluated by multiregression and mixed-effects modeling using R.
# POD values were then integrated using ToxPi 2.0 ([Marvel et al. 2018]) software. In ToxPi, each slice is representative of cell type– and time-point–specific phenotypes. The area of each slice is proportional to the relative value (e.g., bioactivity or physicochemical descriptor value) of the chemical within the data set. ToxPi scores were used to rank PCBs and their metabolites according to their overall bioactivity and to determine variability in total observable biological responses and chemical characteristics for each major metabolite class and chlorination status (mono-, hexa-chlorinated). Additional visualizations such as dumbbell and principal components analysis plots were generated in R Studio (version 1.1.456; R version 3.5.1; R Development Core Team) using the ggplot2 package.
Compound,cm.amp.avg.90min ToxPi,cm.amp.cv.90min ToxPi,cm.bpm.90min ToxPi,cm.cam.90min ToxPi,cm.decay.rise.90min ToxPi,cm.mii.90min ToxPi,cm.mito.90min ToxPi,cm.spacing.cv.90min ToxPi,cm.tc.90min ToxPi
Oc1cc(Cl)c(-c2cc(Cl)ccc2Cl)cc1Cl [4-OH PCB52],0.29,0.27,1.00,1.00,0.20,0.29,1.00,0.14,1.00

# Same assay, conditions: 24hrs
Compound,cm.amp.avg.24hrs ToxPi,cm.amp.cv.24hrs ToxPi,cm.bpm.24hrs ToxPi,cm.cam.24hrs ToxPi,cm.decay.rise.24hrs ToxPi,cm.mii.24hrs ToxPi,cm.mito.24hrs ToxPi,cm.spacing.cv.24hrs ToxPi,cm.tc.24hrs ToxPi
Oc1cc(Cl)c(-c2cc(Cl)ccc2Cl)cc1Cl [4-OH PCB52],0.19,0.10,0.45,0.15,0.26,0.11,0.22,0.35,0.20

# Same assay, conditions: Biological Activity ToxPi; POD values of iPSC-CM, iPSC-EC and HUVEC phenotypes integrated
row,Compound,ToxPi_Score_Bioactivity
1,Oc1ccc(-c2ccc(Cl)cc2)cc1 [4'-OH-PCB 3],0.6158
2,"COc1ccc(-c2ccc(Cl)cc2)cc1 [4'-OMe-PCB 3, 4′-methoxy-4-chlorobiphenyl]",0.2516
3,O=S(=O)(O)Oc1ccc(-c2ccc(Cl)cc2)cc1 [4'-PCB 3 sulfate],0.1398
4,"O=C1C=CC(=O)C(c2ccc(Cl)cc2)=C1 [4-Cl-BQ, 2-(4-Chlorophenyl)benzo-2,5-quinone]",0.6912

# Same assay, conditions: Chemical-Biological Integration ToxPi; in vitro data plus physicochemical descriptors
row,Compound,ToxPi_Score_ChemBiol
1,Oc1ccc(-c2ccc(Cl)cc2)cc1 [4'-OH-PCB 3],0.4936
2,"COc1ccc(-c2ccc(Cl)cc2)cc1 [4'-OMe-PCB 3, 4′-methoxy-4-chlorobiphenyl]",0.248
3,O=S(=O)(O)Oc1ccc(-c2ccc(Cl)cc2)cc1 [4'-PCB 3 sulfate],0.244
4,"O=C1C=CC(=O)C(c2ccc(Cl)cc2)=C1 [4-Cl-BQ, 2-(4-Chlorophenyl)benzo-2,5-quinone]",0.5971

# Same assay, conditions: HUVECs, 18 hr; scaled from POD
Compound,huvec.mtl.18hr ToxPi,huvec.tlps.18hr ToxPi,huvec.tta.18hr ToxPi,huvec.ttl.18hr ToxPi
"O=C1C=CC(=O)C(c2ccc(Cl)cc2)=C1 [4-Cl-BQ, 2-(4-Chlorophenyl)benzo-2,5-quinone]",0.99,0.56,1.00,0.90
Oc1cc(Cl)c(-c2cc(Cl)ccc2Cl)cc1Cl [4-OH PCB52],0.56,0.60,0.13,0.07

# Same assay, conditions: HUVECs, 24 hr; scaled from POD
Compound,huvec.cyto.24hr ToxPi,huvec.mito.24hr ToxPi,huvec.mitoint.24hr ToxPi,huvec.nma.24hr ToxPi
"O=C1C=CC(=O)C(c2ccc(Cl)cc2)=C1 [4-Cl-BQ, 2-(4-Chlorophenyl)benzo-2,5-quinone]",1.00,0.85,0.99,0.67
Oc1cc(Cl)c(-c2cc(Cl)ccc2Cl)cc1Cl [4-OH PCB52],0.48,0.54,0.75,0.00

# Same assay, conditions: HUVECs, 24 hrs; scaled from POD
row,Compound,huvec.tc.24hrs ToxPi
1,"O=C1C=CC(=O)C(c2ccc(Cl)cc2)=C1 [4-Cl-BQ, 2-(4-Chlorophenyl)benzo-2,5-quinone]",1.00
2,Oc1cc(Cl)c(-c2cc(Cl)ccc2Cl)cc1Cl [4-OH PCB52],0.48

# Same assay, conditions: iPSC-CM
Compound,cm.amp.avg.24hrs ToxPi,cm.amp.avg.90min ToxPi,cm.amp.cv.24hrs ToxPi,cm.amp.cv.90min ToxPi,cm.bpm.24hrs ToxPi,cm.bpm.90min ToxPi,cm.cam.24hrs ToxPi,cm.cam.90min ToxPi,cm.decay.rise.24hrs ToxPi,cm.decay.rise.90min ToxPi
"O=C1C=CC(=O)C(c2ccc(Cl)cc2)=C1 [4-Cl-BQ, 2-(4-Chlorophenyl)benzo-2,5-quinone]",0.33,0.32,0.31,0.25,0.66,0.16,1.00,0.40,0.86,0.21

# Same assay, conditions: iPSC-CM
Compound,cm.mii.24hrs ToxPi,cm.mii.90min ToxPi,cm.mito.24hrs ToxPi,cm.mito.90min ToxPi,cm.spacing.cv.24hrs ToxPi,cm.spacing.cv.90min ToxPi,cm.tc.24hrs ToxPi,cm.tc.90min ToxPi
"O=C1C=CC(=O)C(c2ccc(Cl)cc2)=C1 [4-Cl-BQ, 2-(4-Chlorophenyl)benzo-2,5-quinone]",0.20,0.89,0.70,0.39,0.75,0.31,0.00,0.00

# Same assay, conditions: iPSC-EC tube formation, 18 hr; scaled from POD
Compound,endo.mtl.18hr ToxPi,endo.tlps.18hr ToxPi,endo.tta.18hr ToxPi,endo.ttl.18hr ToxPi
"O=C1C=CC(=O)C(c2ccc(Cl)cc2)=C1 [4-Cl-BQ, 2-(4-Chlorophenyl)benzo-2,5-quinone]",0.58,0.73,0.13,0.20
Oc1cc(Cl)c(-c2cc(Cl)ccc2Cl)cc1Cl [4-OH PCB52],0.25,0.40,0.17,0.17

# Same assay, conditions: iPSC-EC, 24 hr; scaled from POD
Compound,endo.cyto.24hr ToxPi,endo.mito.24hr ToxPi,endo.mitoint.24hr ToxPi,endo.nma.24hr ToxPi,endo.tc.24hrs ToxPi
"O=C1C=CC(=O)C(c2ccc(Cl)cc2)=C1 [4-Cl-BQ, 2-(4-Chlorophenyl)benzo-2,5-quinone]",0.57,0.57,0.27,0.36,0.65
Oc1cc(Cl)c(-c2cc(Cl)ccc2Cl)cc1Cl [4-OH PCB52],0.35,0.35,0.11,0.08,0.32

# Where a name gives a salt, the structure may show the parent alone.
